Experimental data from article PMC8034651.

The chains behind the UniProt entries cited, without tags or fusion partners.
UniProt Q07955: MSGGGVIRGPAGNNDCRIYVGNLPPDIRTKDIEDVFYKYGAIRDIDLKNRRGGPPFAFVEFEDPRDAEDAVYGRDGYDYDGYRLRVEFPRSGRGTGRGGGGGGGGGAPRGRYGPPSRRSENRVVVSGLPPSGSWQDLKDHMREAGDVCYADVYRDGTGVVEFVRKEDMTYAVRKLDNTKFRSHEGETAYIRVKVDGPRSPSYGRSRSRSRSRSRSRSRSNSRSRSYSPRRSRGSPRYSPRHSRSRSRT
UniProt O75533: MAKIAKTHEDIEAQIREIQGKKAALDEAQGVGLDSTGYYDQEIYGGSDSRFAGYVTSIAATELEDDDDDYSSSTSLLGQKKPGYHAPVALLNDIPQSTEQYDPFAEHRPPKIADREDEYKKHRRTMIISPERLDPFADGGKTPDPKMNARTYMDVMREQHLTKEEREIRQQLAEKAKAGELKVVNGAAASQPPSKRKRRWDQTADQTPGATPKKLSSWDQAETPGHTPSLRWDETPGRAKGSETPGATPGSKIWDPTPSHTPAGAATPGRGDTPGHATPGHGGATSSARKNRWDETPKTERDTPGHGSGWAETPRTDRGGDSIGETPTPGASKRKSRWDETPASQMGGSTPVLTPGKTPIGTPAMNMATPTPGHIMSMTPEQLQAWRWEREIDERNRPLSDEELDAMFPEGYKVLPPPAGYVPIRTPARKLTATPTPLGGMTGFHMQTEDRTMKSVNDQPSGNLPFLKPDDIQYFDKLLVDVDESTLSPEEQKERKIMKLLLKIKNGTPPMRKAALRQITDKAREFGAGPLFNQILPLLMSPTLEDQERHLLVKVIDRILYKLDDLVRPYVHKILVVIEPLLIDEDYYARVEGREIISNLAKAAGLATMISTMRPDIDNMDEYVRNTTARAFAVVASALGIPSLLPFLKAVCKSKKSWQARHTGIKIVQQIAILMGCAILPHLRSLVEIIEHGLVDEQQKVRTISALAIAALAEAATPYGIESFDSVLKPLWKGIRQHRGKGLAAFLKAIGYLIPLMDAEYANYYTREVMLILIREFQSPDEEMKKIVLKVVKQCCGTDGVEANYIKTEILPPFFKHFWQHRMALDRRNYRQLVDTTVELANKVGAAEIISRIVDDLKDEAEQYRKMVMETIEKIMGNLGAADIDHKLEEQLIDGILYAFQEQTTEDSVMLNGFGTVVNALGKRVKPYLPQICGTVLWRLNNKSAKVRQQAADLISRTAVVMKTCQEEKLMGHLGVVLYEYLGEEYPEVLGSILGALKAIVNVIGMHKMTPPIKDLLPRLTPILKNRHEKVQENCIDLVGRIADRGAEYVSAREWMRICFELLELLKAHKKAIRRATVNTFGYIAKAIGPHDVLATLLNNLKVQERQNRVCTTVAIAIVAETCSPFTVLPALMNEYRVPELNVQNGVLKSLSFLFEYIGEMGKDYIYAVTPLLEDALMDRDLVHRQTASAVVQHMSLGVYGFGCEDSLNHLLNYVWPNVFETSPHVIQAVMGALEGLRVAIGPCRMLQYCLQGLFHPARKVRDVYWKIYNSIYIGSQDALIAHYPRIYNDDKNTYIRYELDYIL

T1: Pdcd7-Myc (UniProt Q9WTY1)
T1 sequence: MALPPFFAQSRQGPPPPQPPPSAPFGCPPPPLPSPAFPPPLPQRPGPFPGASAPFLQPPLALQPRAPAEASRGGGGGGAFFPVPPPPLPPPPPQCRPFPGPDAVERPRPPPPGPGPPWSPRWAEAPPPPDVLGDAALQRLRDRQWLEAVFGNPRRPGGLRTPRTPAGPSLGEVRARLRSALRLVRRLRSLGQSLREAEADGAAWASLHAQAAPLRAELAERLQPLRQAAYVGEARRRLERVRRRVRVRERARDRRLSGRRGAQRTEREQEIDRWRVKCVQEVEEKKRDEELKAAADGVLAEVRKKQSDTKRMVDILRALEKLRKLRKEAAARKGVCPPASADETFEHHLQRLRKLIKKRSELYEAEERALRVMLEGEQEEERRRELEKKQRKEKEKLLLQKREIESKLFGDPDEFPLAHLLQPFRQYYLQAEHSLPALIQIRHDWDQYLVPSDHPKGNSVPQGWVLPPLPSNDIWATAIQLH

B1: SF1 (protein, UniProt Q15637 1-639)
chain: MATGANATPLDFPSKKRKRSRWNQDTMEQKTVIPGMPTVIPPGLTREQERAYIVQLQIEDLTRKLRTGDLGIPPNPEDRSPSPEPIYNSEGKRLNTREFRTRKKLEEERHNLITEMVALNPDFKPPADYKPPATRVSDKVMIPQDEYPEINFVGLLIGPRGNTLKNIEKECNAKIMIRGKGSVKEGKVGRKDGQMLPGEDEPLHALVTANTMENVKKAVEQIRNILKQGIETPEDQNDLRKMQLRELARLNGTLREDDNRILRPWQSSETRSITNTTVCTKCGGAGHIASDCKFQRPGDPQSAQDKARMDKEYLSLMAELGEAPVPASVGSTSGPATTPLASAPRPAAPANNPPPPSLMSTTQSRPPWMNSGPSESRPYHGMHGGGPGGPGGGPHSFPHPLPSLTGGHGGHPMQHNPNGPPPPWMQPPPPPMNQGPHPPGHHGPPPMDQYLGSTPVGSGVYRLHQGKGMMPPPPMGMMPPPPPPPSGQPPPPPSGPLPPWQQQQQQPPPPPPPSSSMASSTPLPWQQNTTTTTTSAGTGSIPPWQQQQAAAAASPGAPQMQGNPTMVPLPPGVQPPLPPGAPPPPPPPPPGSAGMMYAPPPPPPPPMDPSNFVTMMGMGVAGMPPFGMPPAPPPPPPQN
B2: SRSF2 (protein, UniProt Q01130 1-221)
chain: MSYGRPPPDVEGMTSLKVDNLTYRTSPDTLRRVFEKYGRVGDVYIPRDRYTKESRGFAFVRFHDKRDAEDAMDAMDGAVLDGRELRVQMARYGRPPDSHHSRRGPPPRRYGGGGYGRRSRSPRRRRRSRSRSRSRSRSRSRSRYSRSKSRSRTRSRSRSTSKSRSARRSKSKSSSVSRSRSRSRSRSRSRSPPPVSKRESKSRSRSKSPPKSPEEEGAVSS
B3: SRSF3 (protein, UniProt P84103 1-164)
chain: MHRDSCPLDCKVYVGNLGNNGNKTELERAFGYYGPLRSVWVARNPPGFAFVEFEDPRDAADAVRELDGRTLCGCRVRVELSNGEKRSRNRGPPPSWGRRPRDDYRRRSPPPRRRSPRRRSFSRSRSRSLSRDRRRERSLSRERNHKPSRSFSRSRSRSRSNERK
B4: U2AF1 (protein, UniProt Q01081 1-240)
chain: MAEYLASIFGTEKDKVNCSFYFKIGACRHGDRCSRLHNKPTFSQTIALLNIYRNPQNSSQSADGLRCAVSDVEMQEHYDEFFEEVFTEMEEKYGEVEEMNVCDNLGDHLVGNVYVKFRREEDAEKAVIDLNNRWFNGQPIHAELSPVTDFREACCRQYEMGECTRGGFCNFMHLKPISRELRRELYGRRRKKHRSRSRSRERRSRSRDRGRGGGGGGGGGGGGRERDRRRSRDRERSGRF
B5: SNRNP40 (protein, UniProt Q96DI7 1-357)
chain: MIEQQKRKGPELPLVPVKRQRHELLLGAGSGPGAGQQQATPGALLQAGPPRCSSLQAPIMLLSGHEGEVYCCKFHPNGSTLASAGFDRLILLWNVYGDCDNYATLKGHSGAVMELHYNTDGSMLFSASTDKTVAVWDSETGERVKRLKGHTSFVNSCYPARRGPQLVCTGSDDGTVKLWDIRKKAAIQTFQNTYQVLAVTFNDTSDQIISGGIDNDIKVWDLRQNKLTYTMRGHADSVTGLSLSSEGSYLLSNAMDNTVRVWDVRPFAPKERCVKIFQGNVHNFEKNLLRCSWSPDGSKIAAGSADRFVYVWDTTSRRILYKLPGHAGSINEVAFHPDEPIIISASSDKRLYMGEIQ

molecular target: T1, Pdcd7-Myc; assay: affinity purification with mass spectrometry; Pdcd7-Myc overexpressed in HEK293T cells for 48 h, cells UV cross-linked (365 nm), lysed in modified RIPA buffer (50 mM Tris-HCl pH 8.0, 150 mM NaCl, 0.5% SDS), immunoprecipitated with goat anti-Myc on protein G Dynabeads; LC-MS/MS, label-free; empty vector as control; hits: >2-fold spectrum counts over control

binding, binds:
SRSF1 (from UniProt Q07955 1-248), SF3B1 (from UniProt O75533 1-1304), B1, B2, B3, B4, B5

Results are given in words; binding and its absence hold for the method and conditions named. In cells and extracts the contact can be indirect. A yes stands for co-enrichment or nearness to the bait. Other partners may have been found. Where a sequence is shown, tags or fusion partners need not be part of it.
